Reference: PubChem BioAssay AID330 (DTP/NCI, 2004)
The list is a part of this screen's results and no random one: it is rich in T/C values a quarter to a half above the control, in often repeated tests (any T/C) and in doses without a T/C. Other doses and runs of a compound stand elsewhere. T/C is the treated group as % of the vehicle group. Some doses have a count of surviving animals in place of a T/C: the source files T/C as zero there, which appears to mark a toxic dose or a test without result, not a measured value. Some survivor counts are full or nearly so, which does not show that the dose was tolerated: the source hardly ever lists a survival T/C far under the control, and the zero likely stands for such cases as well. Survivors were counted at the toxicity check, usually on the fifth day, unless a day is given; later deaths do not show. Schedule codes are those of the source, taken here to give the interval after Q, in days (D) or hours (H), and the number of doses after X. Some entries hold several experiments; their values stand side by side, smallest first. Some structures stand for samples that the source files as different forms (salt, stereo form or complex); doses refer to the form tested. For survival time, this PubChem deposit counts one and a half times the control or more as active, and values a quarter to a half above the control carry no call in these data; other NCI protocols may use other cut-offs. Marks such as (2×) count equal records among those shown.

System: P388 leukemia ip, CD2F1 mice, survival T/C
Assay: NCI In Vivo Anticancer Drug Screen. Data for tumor model P388 Leukemia (intraperitoneal) in CD2F1 (CDF1) mice
Settings: T/C endpoint: median survival time, higher T/C = longer survival
[1] = dose: 200.0 mg/kg/injection, schedule: Q01DX009 (ip), vehicle: saline
[2] = dose: 100.0 mg/kg/injection, schedule: Q01DX005 (ip), vehicle: saline with Tween-80
[3] = dose: 200.0 mg/kg/injection, schedule: Q01DX005 (ip), vehicle: saline with Tween-80
[4] = dose: 200.0 mg/kg/injection, schedule: Q01DX009 (ip), vehicle: Klucel (hydroxypropylcellulose) (HPC)
[5] = dose: 240.0 mg/kg/injection, schedule: Q01DX005 (ip), vehicle: saline with Tween-80
[6] = dose: 400.0 mg/kg/injection, schedule: Q01DX009 (ip), vehicle: Klucel (hydroxypropylcellulose) (HPC)
[7] = dose: 50.0 mg/kg/injection, schedule: Q01DX005 (ip), vehicle: saline
[8] = dose: 100.0 mg/kg/injection, schedule: Q01DX005 (ip), vehicle: saline
[9] = dose: 200.0 mg/kg/injection, schedule: Q01DX005 (ip), vehicle: saline
[10] = dose: 25.0 mg/kg/injection, schedule: Q01DX005 (ip), vehicle: saline with Tween-80
[11] = dose: 50.0 mg/kg/injection, schedule: Q01DX005 (ip), vehicle: saline with Tween-80

CN1CCN(CN2C(=O)C3C4C=CC(C3C2=O)C2C3C(=O)N(CN5CCN(C)CC5)C(=O)C3C42)CC1 (configuration not stated)
T/C (dose: 41.3 mg/kg/injection, schedule: Q01DX009 (ip), vehicle: water): 130 % of control
T/C (dose: 44.6 mg/kg/injection, schedule: Q01DX009 (ip), vehicle: water): 146 % of control
T/C (dose: 50.0 mg/kg/injection, schedule: Q01DX009 (ip), vehicle: water): 125 % of control
T/C (dose: 60.0 mg/kg/injection, schedule: Q01DX005 (ip), vehicle: water): 140 % of control
survivor count (dose: 114.7 mg/kg/injection, schedule: Q01DX009 (ip), vehicle: water): 2 of 6
survivor count (dose: 120.0 mg/kg/injection, schedule: Q01DX005 (ip), vehicle: water): 3 of 6 and 6 of 6
survivor count (dose: 124.0 mg/kg/injection, schedule: Q01DX009 (ip), vehicle: water): 2 of 6
survivor count (dose: 166.7 mg/kg/injection, schedule: Q01DX009 (ip), vehicle: water): 3 of 6
survivor count (dose: 191.2 mg/kg/injection, schedule: Q01DX009 (ip), vehicle: water): 0 of 6
survivor count [1]: 5 of 6
survivor count (dose: 206.7 mg/kg/injection, schedule: Q01DX009 (ip), vehicle: water): 0 of 6

CCOC(=O)N1C=CC=C(Br)C1C#N (configuration not stated)
survivor count [2]: 0 of 6
survivor count [3]: 0 of 6

CC(/C=C/c1ccccc1)=N\Nc1ccc(Cl)cc1Cl
survivor count [4]: 2 of 6

COC(=O)c1nc(N)nc(C(=O)OC)c1C(=O)c1cc(Cl)ccc1Cl
survivor count [5]: 0 of 6

Nc1cc2c(c[n+](CCCCCCCC[n+]3cc4c5ccccc5c(N)cc4c4ccccc43)c3ccccc23)c2ccccc12
T/C (dose: 12.5 mg/kg/injection, schedule: Q04DX003 (ip), vehicle: other): 144 % of control
survivor count (dose: 25.0 mg/kg/injection, schedule: Q04DX003 (ip), vehicle: other): 6 of 6
survivor count (dose: 50.0 mg/kg/injection, schedule: Q04DX003 (ip), vehicle: other): 5 of 6
survivor count (dose: 100.0 mg/kg/injection, schedule: Q04DX003 (ip), vehicle: other): 5 of 6

Cc1ccc(C)n1-n1nnnc1N
survivor count [3]: 3 of 5

Cc1csc(=NCc2cccnc2)n1C
survivor count (dose: 25.0 mg/kg/injection, schedule: Q01DX009 (ip), vehicle: saline): 1 of 6
survivor count (dose: 50.0 mg/kg/injection, schedule: Q01DX009 (ip), vehicle: saline): 0 of 6
survivor count (dose: 100.0 mg/kg/injection, schedule: Q01DX009 (ip), vehicle: saline): 0 of 6
survivor count [1]: 0 of 6

COc1c(OC)c([N+](=O)[O-])c2c(c1[N+](=O)[O-])COC2=O
survivor count (dose: 200.0 mg/kg/injection, schedule: Q01DX005 (ip), vehicle: Klucel (hydroxypropylcellulose) (HPC)): 0 of 6

Cc1cc(N=[N+]=[N-])c2ccc(F)cc2n1
survivor count [5]: 0 of 6

CN(C)/N=C/c1ccc(O)cc1
survivor count (dose: 50.0 mg/kg/injection, schedule: Q01DX009 (ip), vehicle: Klucel (hydroxypropylcellulose) (HPC)): 6 of 6
T/C [6]: 128 % of control
survivor count [6]: 4 of 6

NC(N)=NCCCC(N)C(=O)N1CCCC1C(=O)N1CCCC1C(=O)NC(CCCN=C(N)N)C(=O)O (configuration not stated)
survivor count [7]: 3 of 6
survivor count [8]: 1 of 6
survivor count [9]: 0 of 6

CCC(C)(C)N=C(NC(=O)C(F)(F)F)Nc1cccnc1
survivor count (dose: 400.0 mg/kg/injection, schedule: Q04DX003 (ip), vehicle: saline with Tween-80): 5 of 6

Cc1ccc(N=C(SSC(Cl)(Cl)Cl)SSC(Cl)(Cl)Cl)cc1
survivor count (dose: 100.0 mg/kg/injection, schedule: Q01DX009 (ip), vehicle: saline + alcohol): 3 of 6
survivor count (dose: 200.0 mg/kg/injection, schedule: Q01DX009 (ip), vehicle: saline + alcohol): 0 of 6

CCCCCCCCCCCCCCCC(=O)NCC(=O)NC1C(CO)OC(Nc2ncnc3nc[nH]c23)C(O)C1O (configuration not stated)
T/C (dose: 0.25 mg/kg/injection, schedule: Q01DX009 (ip), vehicle: water): 133 % of control
T/C (dose: 0.5 mg/kg/injection, schedule: Q01DX009 (ip), vehicle: water): 135 and 137 % of control
T/C (dose: 1.0 mg/kg/injection, schedule: Q01DX009 (ip), vehicle: water): 125 % of control
survivor count (dose: 2.0 mg/kg/injection, schedule: Q01DX009 (ip), vehicle: water): 6 of 6
survivor count (dose: 4.0 mg/kg/injection, schedule: Q01DX009 (ip), vehicle: water): 6 of 6

CC1CN=C(c2cccc(NC(=O)NCCCCNC(=O)Nc3cccc(C4=NCC(C)N4)c3)c2)N1 (configuration not stated)
survivor count [10]: 0 of 6
survivor count [11]: 1 of 6
survivor count [2]: 0 of 6
survivor count [3]: 0 of 6

Cc1nn(-c2ccc(Cl)cc2)c2c1c(=O)[nH]c1ccccc12
survivor count (dose: 30.0 mg/kg/injection, schedule: Q01DX005 (ip), vehicle: saline with Tween-80): 6 of 6
survivor count (dose: 60.0 mg/kg/injection, schedule: Q01DX005 (ip), vehicle: saline with Tween-80): 1 of 6
survivor count (dose: 120.0 mg/kg/injection, schedule: Q01DX005 (ip), vehicle: saline with Tween-80): 0 of 6
survivor count [5]: 0 of 6

CCc1ccc2c(c1)C(=O)c1c(c(-c3ccccc3)c3ccccc3c1-c1ccccc1)C2=O
survivor count (dose: 12.5 mg/kg/injection, schedule: Q01DX005 (ip), vehicle: saline with Tween-80): 5 of 5
survivor count [10]: 5 of 5
survivor count [11]: 5 of 5

CCCC(=O)Oc1ccc[nH]c1=O
T/C (dose: 12.5 mg/kg/injection, schedule: Q01DX009 (ip), vehicle: water): 133 % of control

COC(=O)C12C(=O)C(C(=O)OC)(C(c3ccccc3)=C1c1ccccc1)C1OC(=O)OC12 (configuration not stated)
survivor count (dose: 200.0 mg/kg/injection, schedule: Q01DX009 (ip), vehicle: saline with Tween-80): 5 of 6

Cc1ccc2c(N(C)C)cc(N(C)C)nc2c1C
survivor count [4]: 0 of 6

CCOP(=Nc1cc(C)ccc1C)(OCC)OCC
survivor count (dose: 100.0 mg/kg/injection, schedule: Q01DX009 (ip), vehicle: Klucel (hydroxypropylcellulose) (HPC)): 2 of 6
survivor count [4]: 1 of 6

Cc1cc2c(C(C)C)c(O)c(O)c(C=NCCO)c2c(O)c1-c1c(C)cc2c(C(C)C)c(O)c(O)c(C=NCCO)c2c1O
T/C (dose: 150.0 mg/kg/injection, schedule: Q01DX005 (ip), vehicle: saline with Tween-80): 125 % of control
T/C [3]: 131 % of control
T/C (dose: 300.0 mg/kg/injection, schedule: Q01DX005 (ip), vehicle: saline with Tween-80): 145 % of control

O=S(=O)(O)c1cc(N=C=S)ccc1/C=C/c1ccc(N=C=S)cc1S(=O)(=O)O
T/C [7]: 113, 116, 119, 123 % of control
T/C [8]: 126 (2×) and 129 % of control
survivor count [8]: 6 of 6
survivor count [9]: 0 of 6 and 4 of 5

COCCN=NNc1ccc(C#N)cc1
survivor count (dose: 200.0 mg/kg/injection, schedule: Q01DX009 (ip), vehicle: distilled water + Tween-80): 5 of 6

CNC(=O)OCc1c(COC(=O)NC)c(-c2ccccc2)n(C)c1C
T/C (dose: 6.25 mg/kg/injection, schedule: Q01DX009 (ip), vehicle: distilled water + Tween-80): 134 and 135 % of control
T/C (dose: 12.5 mg/kg/injection, schedule: Q01DX009 (ip), vehicle: distilled water + Tween-80): 130 and 132 % of control
T/C (dose: 25.0 mg/kg/injection, schedule: Q01DX009 (ip), vehicle: distilled water + Tween-80): 140 and 145 % of control
survivor count (dose: 50.0 mg/kg/injection, schedule: Q01DX009 (ip), vehicle: distilled water + Tween-80): 6 of 6
survivor count (dose: 100.0 mg/kg/injection, schedule: Q01DX009 (ip), vehicle: distilled water + Tween-80): 2 of 6 and 5 of 6

CCCCCC[C@H]([C@H](C)O)n1cnc2c(N)ncnc21
survivor count [4]: 2 of 6
survivor count [6]: 0 of 6

CSc1c2c(c(C)c3c1[nH]c1ccccc13)C=NCC2
survivor count (dose: 200.0 mg/kg/injection, schedule: Q04DX002 (ip), vehicle: distilled water + Tween-80): 5 of 5
